Where a name gives a salt, the structure may show the parent alone. This is one part of the list. Repeats are few or missing, and single values can be far off.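 The strains were three CDC resistance-bank clinical C. auris isolates from clades III, IV and I, cultured in RPMI-1640 at 35°C. Growth was background-corrected OD600 versus vehicle-only wells on the same plate. A hit needed >50% inhibition in two or more strains plus a plate-corrected B-score exceeding 0.1.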
Columns and labels:
Assay in all cases: growth relative to vehicle control (OD600 ratio) (fraction); higher = less inhibition
Details in all cases: 24 h
[1] = tested on: C. auris AR-384
[2] = tested on: C. auris AR-386
[3] = tested on: C. auris AR-387

SMILES	growth ([1]; 1 µM)	growth ([1]; 10 µM)	growth ([2]; 1 µM)	growth ([2]; 10 µM)	growth ([3]; 1 µM)	growth ([3]; 10 µM)
CC(C(=O)O)c1cccc(Oc2ccccc2)c1 (stereo not drawn) [Fenoprofen Calcium]	1.17	1.07	1.16	1.16	1	0.99
CC1(C)[C@H](C(=O)O)N2C(=O)C[C@H]2S1(=O)=O [Sulbactam]	0.69	0.82	0.91	0.69	0.78	0.72
Nc1nc(F)nc2c1ncn2[C@@H]1O[C@H](COP(=O)(O)O)[C@@H](O)[C@@H]1O [Fludarabine Phosphate]	1.12	0.91	0.82	0.87	0.98	0.82
COCCCOc1ccnc(C[S+]([O-])c2nc3ccccc3[nH]2)c1C (stereo not drawn) [Rebeprazole sodium]	0.89	0.75	0.76	0.67	0.68	0.7
COc1cc2c(Oc3ccc4[nH]c(C)cc4c3F)ncnc2cc1OCCCN1CCCC1 [Cediranib (AZD2171)]	0.77	0.55	0.66	1.02	0.81	0.86
O=C1c2cccc(O)c2C(=O)c2c(O)cccc21 [Danthron]	1.01	1.11	0.84	0.75	0.85	0.83
CC(C)(Oc1ccc(C(=O)c2ccc(Cl)cc2)cc1)C(=O)O [Fenofibric acid]	0.68	0.87	0.81	0.77	0.66	0.85
O=C(CCCN1CCN(c2ccccn2)CC1)c1ccc(F)cc1 [Azaperone]	1.1	0.93	0.95	0.52	0.9	0.72
Cn1c(=O)cc(N2CCC[C@@H](N)C2)n(Cc2cc(F)ccc2C#N)c1=O [Trelagliptin]	0.94	0.77	1.03	0.98	0.94	1.01
CNS(=O)(=O)C[C@H]1CC[C@H](N(C)c2[nH]cnc3nccc2-3)CC1 [Oclacitinib maleate]	1.21	1.33	0.93	1.29	1.12	1.21
CC(=O)NC[C@H]1CN(c2ccc(N3CCOCC3)c(F)c2)C(=O)O1 [Linezolid]	0.87	0.81	1.17	0.77	0.9	0.84
O=C1CCc2ccc(OCCCCN3CCN(c4cccc(Cl)c4Cl)CC3)cc2N1 [Aripiprazole]	0.9	0.98	1.03	0.79	0.75	0.98
O=C(O)Cc1ccccc1Nc1c(Cl)cccc1Cl [Diclofenac Diethylamine]	0.84	0.76	0.86	0.55	0.58	0.57
CN1CCC(=C2c3ccccc3CCc3cccnc32)CC1 [Azatadine dimaleate]	0.99	0.72	0.63	0.88	0.71	0.7
Cc1c(OCC(F)(F)F)ccnc1C[S@@+]([O-])c1nc2ccccc2[nH]1 [Dexlansoprazole]	0.91	1.11	1.11	1.13	1.04	0.95
COC(=O)C1=C(C)NC(C)=C(C(=O)OC(C)C)C1c1cccc2nonc12 (stereo not drawn) [Isradipine]	0.91	0.88	0.74	0.75	0.73	0.74
CN1CCC(=C2c3ccccc3C=Cc3ccccc32)CC1 [Cyproheptadine hydrochloride]	0.75	0.72	1.14	0.68	1	0.75
CC12CC3CC(C)(C1)CC(N)(C3)C2 [Memantine HCl]	0.84	0.84	0.83	0.81	1.05	0.93
CN1CCN(c2ccc3nc(-c4c(N)c5c(F)cccc5[nH]c4=O)[nH]c3c2)CC1 [Dovitinib (TKI258) Lactate]	1.03	0.8	0.86	0.83	0.73	1.01
O=C(/C=C/C=C/c1ccc2c(c1)OCO2)N1CCCCC1 [Piperine]	1	0.79	0.93	0.66	0.71	0.86
CC(=O)N[C@@H](CS)C(=O)O [Acetylcysteine]	0.96	1.02	1.14	1.13	0.89	0.87
COC(=O)[C@H]1[C@H]2C[C@@H]3c4[nH]c5cc(OC)ccc5c4CCN3C[C@H]2C[C@@H](OC(=O)c2cc(OC)c(OC)c(OC)c2)[C@@H]1OC [Reserpine]	1.58	0.85	1.13	0.81	0.76	1.17
Cc1cnc(C(=O)NCCc2ccc(S(=O)(=O)NC(=O)NC3CCCCC3)cc2)cn1 [Glipizide]	1.56	0.82	1.19	0.68	0.88	0.64
NC(=O)CC[C@H](N)C(=O)O [L-Glutamine]	0.78	0.51	0.8	0.92	0.75	0.78
OCCN1C[C@H](O)[C@@H](O)[C@H](O)[C@H]1CO [Miglitol]	0.97	0.82	1	0.96	0.71	0.83
CS(=O)(=O)c1cccc(C[C@H](NC(=O)c2c(Cl)cc3c(c2Cl)CCN(C(=O)c2ccc4ccoc4c2)C3)C(=O)O)c1 [Lifitegrast]	1.09	0.91	0.92	1.05	0.9	0.92
CNS(=O)(=O)CCc1ccc2[nH]cc(C3CCN(C)CC3)c2c1 [Naratriptan HCl]	1.32	0.77	0.91	0.99	0.97	0.93
C[C@@H]1C[C@H]2[C@@H]3C[C@H](F)C4=CC(=O)C=C[C@]4(C)[C@@]3(F)[C@@H](O)C[C@]2(C)[C@@]1(O)C(=O)CO [Flumethasone]	0.96	0.77	0.87	1.17	0.78	0.88

2 of these compounds in another layout.
SMILES | growth ([1]; 1 µM) | growth ([1]; 10 µM) | growth ([2]; 1 µM) | growth ([2]; 10 µM) | growth ([3]; 1 µM) | growth ([3]; 10 µM)
CC(=O)NC[C@H]1CN(c2ccc(N3CCOCC3)c(F)c2)C(=O)O1 [Linezolid] | 0.87 | 0.81 | 1.17 | 0.77 | 0.9 | 0.84
O=C1CCc2ccc(OCCCCN3CCN(c4cccc(Cl)c4Cl)CC3)cc2N1 [Aripiprazole] | 0.9 | 0.98 | 1.03 | 0.79 | 0.75 | 0.98

From the supplement of paper PMC10470496
